In patent US20140271734A1, “BILE ACID RECYCLING INHIBITORS FOR TREATMENT OF BARRETT'S ESOPHAGUS AND GASTROESOPHAGEAL REFLUX DISEASE” (LUMENA PHARMACEUTICALS, INC., priority 2013, published 2014):

Test: Fecal weight in rats, LUM001 Q.D. for four days
Format: in vivo, Wistar rats

CCCCC1(CCCC)CS(=O)(=O)c2ccc(N(C)C)cc2[C@@H](c2ccc(OCc3ccc(C[N+]45CCN(CC4)CC5)cc3)cc2)[C@H]1O [LUM001]
Fecal Weight (Q.D. 0.0006 mg/kg/day): 17.1 gm/48 hr | Fecal Weight (Q.D. 0.002 mg/kg/day): 16.3 gm/48 hr | Fecal Weight (Q.D. 0.003 mg/kg/day): 16.2 gm/48 hr | Fecal Weight (Q.D. 0.008 mg/kg/day): 17.3 gm/48 hr | Fecal Weight (Q.D. 0.016 mg/kg/day): 17.7 gm/48 hr | Fecal Weight (Q.D. 0.04 mg/kg/day): 14.9 gm/48 hr | Fecal Weight (Q.D. 0.08 mg/kg/day): 16.8 gm/48 hr | Fecal Weight (Q.D. 0.2 mg/kg/day): 24.4 gm/48 hr | Fecal Weight (Q.D. 0.4 mg/kg/day): 17.9 gm/48 hr | Fecal Weight (Q.D. 2 mg/kg/day): 18.0 gm/48 hr
